Data: patent US7456294B2, “Hairpin polyamide” (Japan Science and Technology Agency, priority 2002, dated 2008)

Test system: 39 human cultured cancer cell lines
Test: Cytostatic activity on 39 human cultured cancer cell lines
Type: cell-based
Details: Compound 13 compared with Compound 14
Text: The first is the proportional relationship between the DNA-alkylating ability and the cytostatic activity (FIG. 8). For example, the mean IC50 values of ImPyDu (−4.59), ImPyDu86 (−5.95) and ImPyLDu86 (−8.25) were reduced gradually as the DNA-alkylating ability was increased.
A further interesting result was obtained when comparing the fingerprint patterns indicating the cytostatic activity of the hairpin sequence-specific alkylating agents ImPyPy-γ-ImPyLDu 36 (13) and ImPyPy-γ-ImPyPyLDu 36 (14) (FIG. 9). In general, a high correlation coefficient (r=0.75 to 1.0) is known to be obtained when comparing the fingerprint patterns between the drugs whose action mechanisms are analogous to each other, and in fact an extremely high analogy was observed among a DNA intercalator, doxorubicin, daunorubicin and epirubicin. […] The influence on the cytostatic activity attributable only to the difference in the base sequence-recognizing ability in spite of the analogy in the structure as observed with these Compound 13 and 14 has never been reported, and thus is one of the most important findings.

Row | Structure (SMILES) | correlation of the fingerprint patterns (r)
1 | COC(=O)C1=C(C)CC2=C1[C@@]13C[C@@H]1CN(C(=O)/C=C/c1cc(NC(=O)c4nc(NC(=O)CCCNC(=O)c5cc(NC(=O)c6cc(NC(=O)c7nc(NC(C)=O)cn7C)cn6C)cn5C)cn4C)cn1C)C3=CC2=O [Compound 13, AcImPyPy-γ-ImPyLCPI] | 0.60
2 | COC(=O)c1c(C)[nH]c2c1[C@@]13C[C@@H]1CN(C(=O)/C=C/c1cc(NC(=O)c4cc(NC(=O)c5nc(NC(=O)CCCNC(=O)c6cc(NC(=O)c7cc(NC(=O)c8nc(NC(C)=O)cn8C)cn7C)cn6C)cn5C)cn4C)cn1C)C3=CC2=O [Compound 14, AcImPyPy-γ-ImPyPyLCPI] | 0.60

The amount applied is not stated for every result.
